The target of test [1] is T1, γ-catenin (human (endogenous in kidney tissue)) (UniProt P14923).
T1 sequence: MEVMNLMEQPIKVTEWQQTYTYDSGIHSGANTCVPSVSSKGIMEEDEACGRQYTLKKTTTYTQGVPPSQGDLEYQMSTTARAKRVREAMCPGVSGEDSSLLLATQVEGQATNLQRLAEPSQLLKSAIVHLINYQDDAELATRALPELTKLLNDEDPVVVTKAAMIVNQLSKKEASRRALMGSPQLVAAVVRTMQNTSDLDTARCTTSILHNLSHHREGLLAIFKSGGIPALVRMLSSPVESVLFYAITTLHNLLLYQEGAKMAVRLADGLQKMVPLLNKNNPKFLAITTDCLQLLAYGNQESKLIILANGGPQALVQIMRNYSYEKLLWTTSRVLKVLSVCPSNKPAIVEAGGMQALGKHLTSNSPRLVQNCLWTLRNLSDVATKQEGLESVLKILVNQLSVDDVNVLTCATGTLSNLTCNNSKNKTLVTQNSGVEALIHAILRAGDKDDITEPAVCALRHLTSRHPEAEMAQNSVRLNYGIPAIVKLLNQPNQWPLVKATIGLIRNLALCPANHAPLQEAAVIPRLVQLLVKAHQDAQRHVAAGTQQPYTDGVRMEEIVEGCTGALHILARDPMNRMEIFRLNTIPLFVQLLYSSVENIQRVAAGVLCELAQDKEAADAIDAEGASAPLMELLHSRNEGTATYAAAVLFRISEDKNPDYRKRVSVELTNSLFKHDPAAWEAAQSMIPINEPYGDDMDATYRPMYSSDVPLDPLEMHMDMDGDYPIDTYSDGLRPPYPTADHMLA
In words: co-IP; β- or γ-catenin-specific antibodies coupled to Protein-A agarose, incubated 1 hour at 4°C with pre-cleared normal human kidney tissue lysate (0.6% CHAPS in PBS with protease inhibitors); cadherin-9 detected by Western blot. On the technique in general: In western blotting, separated proteins are transferred to a membrane and probed.

Amino acid sequences for entries named in this document (tags omitted).
UniProt P35222: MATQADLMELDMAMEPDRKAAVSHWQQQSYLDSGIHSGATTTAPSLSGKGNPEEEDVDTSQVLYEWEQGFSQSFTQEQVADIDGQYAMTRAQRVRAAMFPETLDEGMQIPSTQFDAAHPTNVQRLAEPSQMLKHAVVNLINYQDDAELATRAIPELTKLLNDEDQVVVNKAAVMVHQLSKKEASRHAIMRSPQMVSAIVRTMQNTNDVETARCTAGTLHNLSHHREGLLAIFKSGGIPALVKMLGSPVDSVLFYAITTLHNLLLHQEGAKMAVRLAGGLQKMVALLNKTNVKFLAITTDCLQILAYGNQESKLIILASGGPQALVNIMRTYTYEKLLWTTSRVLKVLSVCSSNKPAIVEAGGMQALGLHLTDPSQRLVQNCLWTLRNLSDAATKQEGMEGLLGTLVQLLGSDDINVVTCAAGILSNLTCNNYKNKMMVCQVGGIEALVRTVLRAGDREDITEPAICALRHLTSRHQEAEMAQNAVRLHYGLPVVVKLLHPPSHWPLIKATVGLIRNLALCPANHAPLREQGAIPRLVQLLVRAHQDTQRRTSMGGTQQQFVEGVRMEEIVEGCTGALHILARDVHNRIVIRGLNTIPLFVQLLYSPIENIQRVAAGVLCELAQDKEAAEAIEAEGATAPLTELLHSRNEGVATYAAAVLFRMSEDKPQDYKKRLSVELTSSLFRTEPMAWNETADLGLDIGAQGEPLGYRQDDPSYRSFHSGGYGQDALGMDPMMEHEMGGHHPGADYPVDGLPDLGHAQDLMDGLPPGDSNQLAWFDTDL

For test [2], the target named is β-catenin (human (endogenous in kidney tissue)) (UniProt P35222). The description is as above.

Results are given in words; binding and its absence hold for the method and conditions named. Binding seen in cells or lysates may run through a third protein. Some entries that bind do so weakly or less than the wild type.

B1: cadherin-9 (protein, UniProt Q9ULB4 54-789)
chain: GWMWNQFFLLEEYTGTDTQYVGKLHTDQDKGDGNLKYILTGDGAGSLFVIDENTGDIHAAKKLDREEKSLYILRAKAIDRKTGRQVEPESEFIIKIHDINDNEPKFTKDLYTASVPEMSGVGTSVIQVTATDADDANYGNSAKVVYSILQGQPYFSVDPESGIIKTALPDMSRENREQYQVVIQAKDMGGQMGGLSGTTTVNITLTDVNNNPPRFPQSTYQFNSPESVPLGTHLGRIKANDPDVGENAEMEYSIAEGDGADMFDVITDKDTQEGIITVKQNLDFENQMLYTLRVDASNTHPDPRFLHLGPFKDTAVVKISVEDIDEPPVFTKVSYLIEVDEDVKEGSIIGQVTAYDPDARNNLIKYSVDRHTDMDRIFGIHSENGSIFTLKALDRESSPWHNITVTATEINNPKQSSHIPVFIRILDINDHAPEFAMYYETFVCENAKPGQLIQTVSVMDKDDPPRGHKFFFEPVPEFTLNPNFTIVDNKDNTAGIMTRKDGYSRNKMSTYLLPILIFDNDYPIQSSTGTLTIRVCACDNQGNMQSCTAEALILSAGLSTGALVAILLCVLILLILVVLFAALKRQRKKEPLIISKDDVRDNIVTYNDEGGGEEDTQAFDIGTLRNPEAREDSKLRRDVMPETIFQIRRTVPLWENIDVQDFIHRRLKENDADPSAPPYDSLATYAYEGNDSIADSLSSLESLTADCNQDYDYLSDWGPRFKKLADMYGGDDSDRD
For the molecule B1, the binding result in test [1] and in test [2] was “binds” in each case.

The values are drawn from paper PMC1924602.
